Results from publication PMC11724882, “Molecular basis for the enzymatic inactivity of class III glutaredoxin ROXY9 on standard glutathionylated substrates” (Nature Communications, 2025).
These are yes or no findings as the source states them, for the method shown. Where a sequence is shown, tags or fusion partners need not be part of it.

Target: strep-MBP-GRXC2 (Arabidopsis thaliana) (UniProt Q9FNE2)
Test: SEC; analytical gel filtration of the affinity-purified strep-MBP fusion proteins (purified in the presence of 5 mM GSH); strep-MBP-ROXY9 also after DTT treatment; both purified

B1: strep-MBP-GRXC2 (enzyme, UniProt Q9FNE2 1-111)
chain: MAMQKAKEIVNSESVVVFSKTYCPYCVRVKELLQQLGAKFKAVELDTESDGSQIQSGLAEWTGQRTVPNVFIGGNHIGGCDATSNLHKDGKLVPLLTEAGAIAGKTATTSA
- binding: no binding
